Test results as given in the supplement of paper PMC6411743.
± gives the standard deviation of the averaged measurements. The list shows a part of the results, in another mix than the full data.

The chains behind the UniProt entries cited, without tags or fusion partners. Where a name states a change or a piece, a line headed by the entry shows the natural chain unless it says otherwise.
UniProt Q6QNY1: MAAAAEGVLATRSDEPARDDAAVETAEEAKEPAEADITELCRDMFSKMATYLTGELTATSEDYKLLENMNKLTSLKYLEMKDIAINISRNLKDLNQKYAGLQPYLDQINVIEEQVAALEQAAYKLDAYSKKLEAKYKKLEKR
UniProt Q7Z422: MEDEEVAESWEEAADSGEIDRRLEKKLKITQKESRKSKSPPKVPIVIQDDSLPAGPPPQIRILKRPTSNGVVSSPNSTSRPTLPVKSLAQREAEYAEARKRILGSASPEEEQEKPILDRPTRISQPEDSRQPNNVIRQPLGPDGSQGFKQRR
UniProt Q70UQ0: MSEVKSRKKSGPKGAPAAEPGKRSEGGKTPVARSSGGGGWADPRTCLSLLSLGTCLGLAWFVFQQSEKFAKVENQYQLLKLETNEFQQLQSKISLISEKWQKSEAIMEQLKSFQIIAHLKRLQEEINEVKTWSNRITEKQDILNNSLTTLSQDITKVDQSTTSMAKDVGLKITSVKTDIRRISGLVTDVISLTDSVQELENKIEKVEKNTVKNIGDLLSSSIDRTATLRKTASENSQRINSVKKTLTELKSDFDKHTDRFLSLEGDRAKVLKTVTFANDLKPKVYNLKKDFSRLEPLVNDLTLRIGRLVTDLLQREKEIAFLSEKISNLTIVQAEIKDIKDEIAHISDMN
UniProt Q71F23: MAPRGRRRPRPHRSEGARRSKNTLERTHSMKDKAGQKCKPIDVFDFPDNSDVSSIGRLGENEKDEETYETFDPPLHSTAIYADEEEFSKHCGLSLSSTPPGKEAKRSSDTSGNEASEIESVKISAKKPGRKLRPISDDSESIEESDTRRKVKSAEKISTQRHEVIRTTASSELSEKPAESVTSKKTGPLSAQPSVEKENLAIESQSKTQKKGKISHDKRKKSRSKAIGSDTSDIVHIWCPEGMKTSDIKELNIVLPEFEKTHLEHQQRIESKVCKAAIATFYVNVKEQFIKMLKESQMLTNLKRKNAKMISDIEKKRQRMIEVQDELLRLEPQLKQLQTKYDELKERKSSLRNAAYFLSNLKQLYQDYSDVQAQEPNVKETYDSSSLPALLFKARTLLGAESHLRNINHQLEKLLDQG
UniProt Q86T24: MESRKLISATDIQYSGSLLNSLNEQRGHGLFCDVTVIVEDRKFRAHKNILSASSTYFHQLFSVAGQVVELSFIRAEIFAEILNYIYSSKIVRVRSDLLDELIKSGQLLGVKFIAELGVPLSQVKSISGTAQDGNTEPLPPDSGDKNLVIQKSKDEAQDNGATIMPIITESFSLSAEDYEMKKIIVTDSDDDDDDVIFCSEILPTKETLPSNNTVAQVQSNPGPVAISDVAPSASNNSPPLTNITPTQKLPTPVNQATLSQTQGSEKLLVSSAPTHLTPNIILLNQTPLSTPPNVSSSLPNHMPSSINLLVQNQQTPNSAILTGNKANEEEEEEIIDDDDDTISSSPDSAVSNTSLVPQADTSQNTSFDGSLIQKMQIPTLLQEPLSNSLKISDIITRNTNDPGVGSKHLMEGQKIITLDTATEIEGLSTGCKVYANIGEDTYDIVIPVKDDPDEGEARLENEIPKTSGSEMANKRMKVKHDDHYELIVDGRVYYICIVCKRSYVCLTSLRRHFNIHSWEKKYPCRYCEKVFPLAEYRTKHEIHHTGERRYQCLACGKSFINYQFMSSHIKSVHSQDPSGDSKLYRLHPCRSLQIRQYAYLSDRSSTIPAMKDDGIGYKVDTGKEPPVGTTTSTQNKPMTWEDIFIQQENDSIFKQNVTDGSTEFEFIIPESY
UniProt Q8IV50: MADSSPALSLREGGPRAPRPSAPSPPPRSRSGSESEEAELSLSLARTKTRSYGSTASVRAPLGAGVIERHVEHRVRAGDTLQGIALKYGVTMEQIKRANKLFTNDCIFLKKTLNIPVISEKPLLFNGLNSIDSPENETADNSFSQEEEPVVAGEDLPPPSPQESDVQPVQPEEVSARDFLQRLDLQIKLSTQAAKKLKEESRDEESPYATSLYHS
UniProt Q6UB99: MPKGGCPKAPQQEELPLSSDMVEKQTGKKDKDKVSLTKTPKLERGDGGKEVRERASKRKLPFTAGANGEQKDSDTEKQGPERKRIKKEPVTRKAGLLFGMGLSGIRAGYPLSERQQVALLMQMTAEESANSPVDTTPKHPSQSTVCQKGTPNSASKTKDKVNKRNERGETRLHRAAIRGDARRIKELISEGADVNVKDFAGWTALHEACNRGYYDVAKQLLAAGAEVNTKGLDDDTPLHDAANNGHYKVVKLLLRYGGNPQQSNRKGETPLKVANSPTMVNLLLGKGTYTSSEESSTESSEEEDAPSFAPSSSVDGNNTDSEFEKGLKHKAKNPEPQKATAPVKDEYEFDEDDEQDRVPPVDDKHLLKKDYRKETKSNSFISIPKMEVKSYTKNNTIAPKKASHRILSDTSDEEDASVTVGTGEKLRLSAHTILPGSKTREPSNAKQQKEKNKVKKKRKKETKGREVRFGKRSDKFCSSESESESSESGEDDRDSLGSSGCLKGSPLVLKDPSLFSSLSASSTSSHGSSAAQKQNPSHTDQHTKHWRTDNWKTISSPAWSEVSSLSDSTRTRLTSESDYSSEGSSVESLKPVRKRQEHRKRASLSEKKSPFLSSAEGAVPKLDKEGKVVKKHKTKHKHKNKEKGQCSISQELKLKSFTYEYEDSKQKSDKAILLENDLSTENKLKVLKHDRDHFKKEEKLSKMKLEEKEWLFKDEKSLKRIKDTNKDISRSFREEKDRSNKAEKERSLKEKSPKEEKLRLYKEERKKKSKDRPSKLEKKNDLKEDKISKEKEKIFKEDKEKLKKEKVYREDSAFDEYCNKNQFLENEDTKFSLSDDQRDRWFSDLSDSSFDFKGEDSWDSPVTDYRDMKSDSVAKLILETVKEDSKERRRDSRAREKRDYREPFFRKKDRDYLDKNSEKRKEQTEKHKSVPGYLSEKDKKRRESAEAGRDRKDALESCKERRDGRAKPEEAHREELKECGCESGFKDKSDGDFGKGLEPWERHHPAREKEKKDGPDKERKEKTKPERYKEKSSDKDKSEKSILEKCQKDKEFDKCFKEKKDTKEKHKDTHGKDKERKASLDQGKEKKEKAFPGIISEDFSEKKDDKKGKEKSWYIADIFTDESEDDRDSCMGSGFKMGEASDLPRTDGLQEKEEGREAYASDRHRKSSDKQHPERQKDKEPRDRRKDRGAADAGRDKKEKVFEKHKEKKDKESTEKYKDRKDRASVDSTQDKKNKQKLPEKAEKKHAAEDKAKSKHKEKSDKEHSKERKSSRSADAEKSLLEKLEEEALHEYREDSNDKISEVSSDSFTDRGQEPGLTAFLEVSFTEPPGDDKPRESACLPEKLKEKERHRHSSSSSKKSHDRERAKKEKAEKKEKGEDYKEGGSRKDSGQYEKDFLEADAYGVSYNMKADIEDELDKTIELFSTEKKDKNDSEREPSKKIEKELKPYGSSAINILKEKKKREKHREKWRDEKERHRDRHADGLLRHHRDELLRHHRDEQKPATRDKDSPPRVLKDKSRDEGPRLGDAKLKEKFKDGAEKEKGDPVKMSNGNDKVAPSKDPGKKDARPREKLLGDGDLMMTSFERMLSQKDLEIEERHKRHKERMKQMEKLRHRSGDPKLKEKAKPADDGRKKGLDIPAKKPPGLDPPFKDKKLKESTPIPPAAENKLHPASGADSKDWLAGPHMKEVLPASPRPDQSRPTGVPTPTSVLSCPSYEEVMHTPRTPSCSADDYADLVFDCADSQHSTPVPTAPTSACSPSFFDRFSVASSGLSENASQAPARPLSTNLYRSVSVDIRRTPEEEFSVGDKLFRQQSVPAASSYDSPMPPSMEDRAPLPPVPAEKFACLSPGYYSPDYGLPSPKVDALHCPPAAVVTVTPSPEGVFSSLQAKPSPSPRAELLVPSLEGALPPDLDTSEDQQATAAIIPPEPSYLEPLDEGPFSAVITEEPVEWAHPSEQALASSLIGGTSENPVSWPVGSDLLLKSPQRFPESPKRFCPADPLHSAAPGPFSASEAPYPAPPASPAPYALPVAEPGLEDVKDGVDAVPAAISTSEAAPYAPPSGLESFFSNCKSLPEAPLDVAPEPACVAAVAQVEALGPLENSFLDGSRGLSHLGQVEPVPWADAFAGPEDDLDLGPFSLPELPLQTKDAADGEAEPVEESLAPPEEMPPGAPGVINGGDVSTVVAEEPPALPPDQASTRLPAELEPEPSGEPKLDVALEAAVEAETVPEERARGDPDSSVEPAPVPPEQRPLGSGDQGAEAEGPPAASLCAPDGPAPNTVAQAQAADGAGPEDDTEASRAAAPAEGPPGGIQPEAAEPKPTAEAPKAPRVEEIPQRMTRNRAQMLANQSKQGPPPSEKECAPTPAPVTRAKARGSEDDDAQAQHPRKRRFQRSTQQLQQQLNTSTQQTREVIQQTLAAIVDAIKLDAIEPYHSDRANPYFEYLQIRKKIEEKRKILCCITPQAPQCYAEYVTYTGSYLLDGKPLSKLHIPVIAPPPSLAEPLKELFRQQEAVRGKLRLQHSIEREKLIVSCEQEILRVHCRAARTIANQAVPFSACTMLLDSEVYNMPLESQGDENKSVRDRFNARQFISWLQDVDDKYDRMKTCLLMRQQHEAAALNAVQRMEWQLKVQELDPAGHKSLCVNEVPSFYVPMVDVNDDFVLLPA
UniProt Q86SX6: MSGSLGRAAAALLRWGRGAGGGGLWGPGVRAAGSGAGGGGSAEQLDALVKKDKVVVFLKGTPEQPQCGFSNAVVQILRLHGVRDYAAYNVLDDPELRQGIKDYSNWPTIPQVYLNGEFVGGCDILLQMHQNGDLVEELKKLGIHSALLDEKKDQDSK
UniProt Q6UWP7: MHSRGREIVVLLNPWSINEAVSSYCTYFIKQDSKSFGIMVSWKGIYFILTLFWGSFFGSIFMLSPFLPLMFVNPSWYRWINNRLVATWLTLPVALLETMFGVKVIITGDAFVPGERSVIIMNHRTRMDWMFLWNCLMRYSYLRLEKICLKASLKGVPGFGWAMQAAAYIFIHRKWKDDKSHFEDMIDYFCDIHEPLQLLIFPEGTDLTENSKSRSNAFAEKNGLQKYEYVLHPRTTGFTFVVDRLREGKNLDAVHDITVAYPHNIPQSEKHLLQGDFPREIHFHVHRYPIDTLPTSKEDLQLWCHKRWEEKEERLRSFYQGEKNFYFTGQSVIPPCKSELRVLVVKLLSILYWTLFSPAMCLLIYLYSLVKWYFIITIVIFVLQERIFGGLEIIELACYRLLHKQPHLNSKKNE
UniProt Q86YP4: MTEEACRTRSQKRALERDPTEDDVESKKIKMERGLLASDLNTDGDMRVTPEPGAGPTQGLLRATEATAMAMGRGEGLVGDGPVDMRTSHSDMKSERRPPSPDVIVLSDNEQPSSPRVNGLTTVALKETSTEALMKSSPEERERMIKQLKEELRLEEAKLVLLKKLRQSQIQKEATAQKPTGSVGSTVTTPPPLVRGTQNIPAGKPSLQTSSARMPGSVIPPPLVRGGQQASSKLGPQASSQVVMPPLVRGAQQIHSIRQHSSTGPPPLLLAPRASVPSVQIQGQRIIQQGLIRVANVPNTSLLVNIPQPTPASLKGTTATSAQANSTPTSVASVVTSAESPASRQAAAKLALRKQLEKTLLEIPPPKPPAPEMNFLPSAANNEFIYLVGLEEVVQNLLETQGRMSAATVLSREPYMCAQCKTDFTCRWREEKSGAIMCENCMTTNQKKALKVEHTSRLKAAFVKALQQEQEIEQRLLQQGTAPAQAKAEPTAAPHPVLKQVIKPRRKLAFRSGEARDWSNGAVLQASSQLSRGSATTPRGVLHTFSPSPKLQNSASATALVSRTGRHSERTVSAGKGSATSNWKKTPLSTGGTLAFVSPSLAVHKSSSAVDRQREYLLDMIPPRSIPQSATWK
UniProt Q86UE8, whole entry, looked up: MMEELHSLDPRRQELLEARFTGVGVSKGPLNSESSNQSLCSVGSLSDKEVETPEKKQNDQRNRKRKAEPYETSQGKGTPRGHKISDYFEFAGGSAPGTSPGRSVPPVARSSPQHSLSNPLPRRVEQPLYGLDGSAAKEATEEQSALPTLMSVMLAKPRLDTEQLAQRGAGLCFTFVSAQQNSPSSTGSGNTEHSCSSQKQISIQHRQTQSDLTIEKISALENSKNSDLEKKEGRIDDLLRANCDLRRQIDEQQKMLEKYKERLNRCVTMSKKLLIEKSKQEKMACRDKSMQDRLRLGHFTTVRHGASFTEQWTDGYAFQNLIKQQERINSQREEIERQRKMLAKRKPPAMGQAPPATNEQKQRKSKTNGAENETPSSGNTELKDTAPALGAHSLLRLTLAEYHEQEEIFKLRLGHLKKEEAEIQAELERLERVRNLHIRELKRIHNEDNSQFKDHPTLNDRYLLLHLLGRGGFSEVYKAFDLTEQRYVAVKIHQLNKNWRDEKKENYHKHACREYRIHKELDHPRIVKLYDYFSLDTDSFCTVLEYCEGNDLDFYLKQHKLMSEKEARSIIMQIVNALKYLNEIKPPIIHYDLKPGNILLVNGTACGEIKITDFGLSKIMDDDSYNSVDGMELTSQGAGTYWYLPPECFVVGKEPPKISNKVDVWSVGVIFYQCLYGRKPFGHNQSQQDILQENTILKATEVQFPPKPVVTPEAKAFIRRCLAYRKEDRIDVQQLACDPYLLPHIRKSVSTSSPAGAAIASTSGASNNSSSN

Compound: Nc1ncnc2c1ncn2[C@@H]1O[C@H](COP(=O)(O)OP(=O)(O)OP(=O)(O)O)[C@@H](O)[C@H]1O [adenosine triphosphate]
Assay: NP40-soluble protein abundance relative to vehicle (solubility fold change) (ratio); higher = more soluble protein in presence of ATP
Outline: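 Jurkat crude lysate (Dounce-homogenised) was treated with eight concentrations from 0.1 to 10 mM for 10 min at room temperature, then 3 min at 37 °C. It was solubilised with 0.8% NP40 and benzonase (60 min, 4 °C) and ultracentrifuged, and the supernatant was TMT-labelled for LC-MS/MS. Intensities were vsn-normalised, and the value is the fold change against the NP40-processed vehicle per replicate, from three independent experiments.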

Target	NP40-soluble protein abundance (concentration: 1mM)	NP40-soluble protein abundance (concentration: 2mM)	NP40-soluble protein abundance (concentration: 4mM)	NP40-soluble protein abundance (concentration: 6mM)	NP40-soluble protein abundance (concentration: 8mM)	NP40-soluble protein abundance (concentration: 10mM)
UniProt Q8IU85 and related entries	1.07 ± 0.079	1.07 ± 0.059	1.04 ± 0.048	1.03 ± 0.097	1.05 ± 0.077	1.05 ± 0.026
TRAPPC5 (UniProt Q8IUR0)	0.883 ± 0.076	0.899 ± 0.082	0.892 ± 0.059	0.784 ± 0.07	0.878 ± 0.046	0.885 ± 0.017
TRAPPC6B (UniProt Q86SZ2)	0.947 ± 0.099	0.972 ± 0.027	0.934 ± 0.053	0.873 ± 0.034	0.974 ± 0.071	0.968 ± 0.053
UniProt Q7Z392	1.05 ± 0.17	1.02 ± 0.16	1.01 ± 0.12	0.94 ± 0.16	1.03 ± 0.058	1.01 ± 0.1
UniProt Q8IUX7	0.778 ± 0.35	0.762 ± 0.34	0.785 ± 0.37	0.8 ± 0.41	0.769 ± 0.39	0.81 ± 0.39
UniProt Q8IUI8 and related entries	1.02 ± 0.029	0.998 ± 0.05	0.99 ± 0.058	0.983 ± 0.072	0.987 ± 0.052	0.968 ± 0.055
HPS6 (UniProt Q86YV9)	0.958 ± 0.032	0.955 ± 0.074	0.96 ± 0.05	0.946 ± 0.067	0.938 ± 0.057	0.982 ± 0.023
HEATR3 (UniProt Q7Z4Q2)	1.03 ± 0.043	1.02 ± 0.031	1.04 ± 0.043	1.03 ± 0.036	1.04 ± 0.045	1.07 ± 0.021
UniProt Q6UN15 and related entries	1.12 ± 0.18	1.17 ± 0.23	1.3 ± 0.24	1.43 ± 0.27	1.36 ± 0.18	1.43 ± 0.21
UniProt Q71RC2 and related entries	1.08 ± 0.067	1.1 ± 0.039	1.19 ± 0.05	1.33 ± 0.13	1.3 ± 0.048	1.42 ± 0.095
SETD3 (UniProt Q86TU7)	1.03 ± 0.059	1.01 ± 0.056	0.989 ± 0.038	0.959 ± 0.087	1.03 ± 0.028	1.03 ± 0.031
UniProt Q7KZ85 and related entries	1.03 ± 0.022	0.995 ± 0.01	0.931 ± 0.014	0.864 ± 0.025	0.839 ± 0.019	0.821 ± 0.018
UniProt Q6UWI4	0.962 ± 0.046	0.968 ± 0.07	0.931 ± 0.11	0.947 ± 0.065	0.919 ± 0.097	0.921 ± 0.08
UniProt Q6UXB8 and related entries	0.96 ± 0.015	0.995 ± 0.025	0.942 ± 0.017	1.01 ± 0.028	0.962 ± 0.04	0.947 ± 0.07
UniProt Q7Z5J4 and related entries	1.12 ± 0.053	1.1 ± 0.038	1.09 ± 0.013	1.18 ± 0.054	1.12 ± 0.038	1.2 ± 0.056
UniProt Q6ZRS2 and related entries	1.25 ± 0.085	1.27 ± 0.077	1.31 ± 0.11	1.39 ± 0.23	1.35 ± 0.15	1.39 ± 0.12
BLOC1S2 (UniProt Q6QNY1)	0.988 ± 0.099	1.08 ± 0.063	1.01 ± 0.088	1.02 ± 0.2	0.9422 ± 0.009	0.988 ± 0.029
UniProt Q7Z422 and related entries	0.925 ± 0.14	0.967 ± 0.11	0.943 ± 0.11	1.01 ± 0.14	0.887 ± 0.061	0.89 ± 0.13
UniProt Q70UQ0 and related entries	0.972 ± 0.074	1 ± 0.053	0.963 ± 0.026	0.983 ± 0.072	0.985 ± 0.043	0.926 ± 0.091
DHRS11 (UniProt Q6UWP2)	0.981 ± 0.02	1.01 ± 0.037	0.976 ± 0.03	0.996 ± 0.022	0.953 ± 0.025	0.963 ± 0.035

Copied from the list:
For NP40-soluble protein abundance (concentration: 4mM), UniProt Q6UN15 and related entries has 1.3 ± 0.24
For NP40-soluble protein abundance (concentration: 8mM), UniProt Q7Z422 and related entries has 0.887 ± 0.061

Complete entries as entered above.
UniProt Q7Z5J4 and related entries as listed: NP40-soluble protein abundance (concentration: 1mM): 1.12 ± 0.053; NP40-soluble protein abundance (concentration: 2mM): 1.1 ± 0.038; NP40-soluble protein abundance (concentration: 4mM): 1.09 ± 0.013; NP40-soluble protein abundance (concentration: 6mM): 1.18 ± 0.054; NP40-soluble protein abundance (concentration: 8mM): 1.12 ± 0.038; NP40-soluble protein abundance (concentration: 10mM): 1.2 ± 0.056
HEATR3 (UniProt Q7Z4Q2) as listed: NP40-soluble protein abundance (concentration: 1mM): 1.03 ± 0.043; NP40-soluble protein abundance (concentration: 2mM): 1.02 ± 0.031; NP40-soluble protein abundance (concentration: 4mM): 1.04 ± 0.043; NP40-soluble protein abundance (concentration: 6mM): 1.03 ± 0.036; NP40-soluble protein abundance (concentration: 8mM): 1.04 ± 0.045; NP40-soluble protein abundance (concentration: 10mM): 1.07 ± 0.021

The list goes on.

Target	NP40-soluble protein abundance (concentration: 1mM)	NP40-soluble protein abundance (concentration: 2mM)	NP40-soluble protein abundance (concentration: 4mM)	NP40-soluble protein abundance (concentration: 6mM)	NP40-soluble protein abundance (concentration: 8mM)	NP40-soluble protein abundance (concentration: 10mM)
UniProt Q6PII5-2|B4DED4	1.11 ± 0.076	1.12 ± 0.044	1.03 ± 0.035	1.02 ± 0.16	1.08 ± 0.085	1.02 ± 0.068
KTN1 (UniProt Q86UP2)	0.957 ± 0.058	0.93 ± 0.043	0.906 ± 0.038	0.969 ± 0.1	0.896 ± 0.039	0.888 ± 0.024
DNMBP (UniProt Q6XZF7)	0.984 ± 0.078	1 ± 0.065	1.02 ± 0.06	1.03 ± 0.064	0.982 ± 0.074	0.963 ± 0.08
UniProt Q86SK9 and related entries	0.994 ± 0.058	1.12 ± 0.28	1.06 ± 0.028	0.892 ± 0.067	0.93 ± 0.034	0.977 ± 0.048
UniProt Q7Z4H7 and related entries	0.993 ± 0.042	1 ± 0.011	1.01 ± 0.023	1.02 ± 0.015	0.986 ± 0.019	1 ± 0.013
UniProt Q6YP21 and related entries	1.06 ± 0.18	1.04 ± 0.12	1.02 ± 0.1	0.944 ± 0.17	1.02 ± 0.091	1.05 ± 0.098
SLC30A9 (UniProt Q6PML9)	0.994 ± 0.01	1.02 ± 0.046	0.987 ± 0.056	0.965 ± 0.059	0.976 ± 0.026	0.966 ± 0.024
UniProt Q7LDG7 and related entries	1.02 ± 0.032	1.08 ± 0.046	1.11 ± 0.042	1.05 ± 0.036	1.13 ± 0.06	1.13 ± 0.055
UniProt Q6ZMI0	0.992 ± 0.029	1 ± 0.025	0.985 ± 0.015	1.01 ± 0.024	0.941 ± 0.025	0.966 ± 0.01
UniProt Q71F23	1.07 ± 0.058	1.18 ± 0.097	1.15 ± 0.16	1.21 ± 0.16	1.22 ± 0.21	1.29 ± 0.2
UniProt Q6PIJ6 and related entries	1.01 ± 0.066	0.9966 ± 0.0042	1.05 ± 0.03	0.973 ± 0.053	1.041 ± 0.0037	1.05 ± 0.068
UniProt Q7Z7A1 and related entries	1.05 ± 0.25	1 ± 0.092	1.01 ± 0.12	1.05 ± 0.12	1.02 ± 0.079	1.05 ± 0.14
UniProt Q6ZMG9 and related entries	0.935 ± 0.24	0.964 ± 0.11	0.948 ± 0.15	0.936 ± 0.25	0.923 ± 0.16	0.997 ± 0.21
SESTD1 (UniProt Q86VW0)	0.989 ± 0.025	1.09 ± 0.03	1.05 ± 0.035	1.03 ± 0.036	1.05 ± 0.051	1.02 ± 0.12
ZBTB33 (UniProt Q86T24)	1 ± 0.058	0.995 ± 0.011	0.998 ± 0.02	1.01 ± 0.047	0.974 ± 0.017	1.02 ± 0.018
TTC37 (UniProt Q6PGP7)	1.04 ± 0.13	1.1 ± 0.083	1.19 ± 0.078	1.16 ± 0.11	1.28 ± 0.026	1.3 ± 0.094
LYSMD2 (UniProt Q8IV50)	0.949 ± 0.033	0.9325 ± 0.0077	0.88 ± 0.034	0.88 ± 0.03	0.88 ± 0.046	0.8365 ± 0.0052
UniProt Q7Z6L1 and related entries	0.972 ± 0.052	0.936 ± 0.052	0.94 ± 0.055	0.921 ± 0.092	0.948 ± 0.073	0.92 ± 0.067
UniProt Q7Z4V5-2|Q7Z4V5 and related entries	0.79 ± 0.045	0.774 ± 0.025	0.734 ± 0.021	0.748 ± 0.03	0.694 ± 0.025	0.712 ± 0.024
UniProt Q7L1Q6	0.928 ± 0.0094	0.942 ± 0.028	0.898 ± 0.022	0.931 ± 0.051	0.905 ± 0.044	0.908 ± 0.042

Target	NP40-soluble protein abundance (concentration: 1mM)	NP40-soluble protein abundance (concentration: 2mM)	NP40-soluble protein abundance (concentration: 4mM)	NP40-soluble protein abundance (concentration: 6mM)	NP40-soluble protein abundance (concentration: 8mM)	NP40-soluble protein abundance (concentration: 10mM)
ANKRD11 (UniProt Q6UB99)	0.952 ± 0.073	1.01 ± 0.043	1.02 ± 0.024	1.03 ± 0.072	0.994 ± 0.033	1.02 ± 0.034
UniProt Q7Z624	1 ± 0.021	0.983 ± 0.045	0.94 ± 0.0078	0.992 ± 0.014	0.977 ± 0.051	1.01 ± 0.12
UniProt Q7Z2E3 and related entries	0.997 ± 0.059	1.04 ± 0.07	1.07 ± 0.051	1.1 ± 0.087	1.16 ± 0.038	1.19 ± 0.1
UniProt Q71SY5 and related entries	0.938 ± 0.054	0.929 ± 0.056	0.943 ± 0.087	0.939 ± 0.087	0.94 ± 0.13	0.957 ± 0.079
WDR59 (UniProt Q6PJI9)	1.13 ± 0.077	1.13 ± 0.04	1.2059 ± 0.0011	1.14 ± 0.018	1.19 ± 0.065	1.28 ± 0.035
GLRX5 (UniProt Q86SX6)	0.874 ± 0.11	0.874 ± 0.1	0.852 ± 0.088	0.93 ± 0.083	0.855 ± 0.045	0.799 ± 0.12
UniProt Q7Z3B4 and related entries	0.964 ± 0.0057	0.969 ± 0.012	0.972 ± 0.028	0.943 ± 0.067	0.999 ± 0.04	1.03 ± 0.027
UniProt Q6UXH1 and related entries	1 ± 0.075	0.998 ± 0.029	0.988 ± 0.013	1.03 ± 0.018	0.94 ± 0.025	0.901 ± 0.053
METAP1D (UniProt Q6UB28)	1.66 ± 0.89	1.05 ± 0.094	0.96 ± 0.17	1.02 ± 0.072	1 ± 0.041	0.964 ± 0.097
UniProt Q6UWP7 and related entries	0.997 ± 0.088	0.996 ± 0.05	0.991 ± 0.081	0.94 ± 0.12	1.01 ± 0.08	0.969 ± 0.069
UniProt Q86XL3 and related entries	1.01 ± 0.026	0.987 ± 0.029	0.987 ± 0.038	1 ± 0.029	0.995 ± 0.016	0.985 ± 0.025
UniProt Q7Z460-4	1.09 ± 0.044	1.08 ± 0.046	1.1 ± 0.051	1.09 ± 0.054	1.08 ± 0.058	1.1 ± 0.066
UniProt Q7L099-2|Q7L099-3|Q7L099-4	0.949 ± 0.024	0.983 ± 0.028	0.9414 ± 0.0072	1.01 ± 0.033	0.92 ± 0.033	0.938 ± 0.029
UniProt Q7Z3J2 and related entries	0.987 ± 0.097	0.974 ± 0.058	0.995 ± 0.1	0.937 ± 0.074	0.999 ± 0.071	0.999 ± 0.084
UniProt Q6ZNW5	0.952 ± 0.11	1.01 ± 0.033	0.984 ± 0.048	0.927 ± 0.13	0.903 ± 0.061	0.973 ± 0.083
CACUL1 (UniProt Q86Y37)	0.965 ± 0.031	0.984 ± 0.027	0.977 ± 0.035	0.971 ± 0.031	0.934 ± 0.031	0.928 ± 0.021
UniProt Q86YP4 and related entries	1 ± 0.076	0.991 ± 0.074	0.998 ± 0.08	1.03 ± 0.13	1 ± 0.091	1.02 ± 0.071
SMG6 (UniProt Q86US8)	1.28 ± 0.019	1.25 ± 0.051	1.29 ± 0.0099	1.282 ± 0.0088	1.31 ± 0.034	1.32 ± 0.03
UniProt Q86UE8-2|Q86UE8-3	0.968 ± 0.032	0.969 ± 0.021	0.964 ± 0.014	0.986 ± 0.011	0.9516 ± 0.0083	0.977 ± 0.028
UniProt Q7L8J4 and related entries	0.967 ± 0.065	0.948 ± 0.014	0.917 ± 0.067	0.882 ± 0.042	0.888 ± 0.037	0.909 ± 0.045
